Laboratory results reported in US20240317858A1.
These are yes or no findings as the source states them, for the method shown. Some results given as binding are weak or reduced against the parent protein; the word gives no strength.

Protein sequences, listed by entry. Tags and fused reporters are not part of them. Residues count along the entry.
UniProt Q95LI5, residues 22-198: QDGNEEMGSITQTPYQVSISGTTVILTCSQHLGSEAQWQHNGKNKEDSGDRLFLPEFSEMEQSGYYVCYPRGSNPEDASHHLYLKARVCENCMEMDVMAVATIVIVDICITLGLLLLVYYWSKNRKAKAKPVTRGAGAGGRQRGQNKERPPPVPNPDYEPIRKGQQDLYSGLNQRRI
UniProt P07766, residues 23-207: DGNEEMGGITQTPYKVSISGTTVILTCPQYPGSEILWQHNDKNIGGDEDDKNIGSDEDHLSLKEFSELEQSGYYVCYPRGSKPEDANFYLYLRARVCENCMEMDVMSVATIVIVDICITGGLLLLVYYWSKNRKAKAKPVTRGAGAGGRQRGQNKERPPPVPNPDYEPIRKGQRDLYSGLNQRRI

Key:
[1] = target: Cynomolgus CD3 on HSC-F cells (cynomolgus) (UniProt Q95LI5); experiment: flow cytometry, 100 nM IgG
[2] = target: Human CD3 on CD3+ Jurkat cells (human) (UniProt P07766); experiment: flow cytometry, 100 nM IgG
[3] = target: Cynomolgus CD3 on HSC-F cells (cynomolgus) (UniProt Q95LI5); experiment: flow cytometry, 100 nM IgG1, pH 7.4
[4] = target: Human CD3 on CD3+ Jurkat cells (human) (UniProt P07766); experiment: flow cytometry, 100 nM IgG1, pH 7.4
[5] = target: Cynomolgus CD3 on HSC-F cells (cynomolgus) (UniProt Q95LI5); experiment: flow cytometry, Fab titration
[6] = target: Human CD3 on CD3+ Jurkat cells (human) (UniProt P07766); experiment: flow cytometry, Fab titration

binding [1] | binding [2] | binding [3] | binding [4] | binding [5] | binding [6] | Binder
binds | binds | binds | binds |  |  | Antibody No. A002 (ADI-50024) IgG1 (antibody, V domains shown) VH: QVQLVQSGAEVKKPGASVKVSCKASGFNIKDYYMHWVRQAPGQRLEWIGWIDLENANTVYDAKFQGRVTITRDTSASTAYMELSSLRSEDTAVYYCARDAYGRYFYDVWGQGTLVTVSS VL: DIVMSQSPDSLAVSLGERATINCKSSQSLLNARTGKNYLAWYQQKPGQPPKLLIYWASTRSSGVPDRFSGSGSGTDFTLTISSLQAEDVAVYYCVQSYFRRTFGGGTKVEIK
 |  | binds | binds |  |  | Antibody No. V016 (ADI-76359) IgG1 (antibody, V domains shown) VH: QVQLVQSGAEVKKPGASVKVSCKASGFDIKDYYMHWVRQAPGQRLEWMGWIDLENANTIYDAKFQGRVTITRDTSASTAYMELSSLRSEDTAVYYCGRDAYGRYFYDVWGQGTLVTVSS VL: DIVMTQSPDSLAVSLGERATINCKSSQSLLNARTGKNYLAWYQQKPGQPPKLLIYWASTRESGVPDRFSGSGSGTDFTLTISSLQAEDVAVYYCKQSYSLRTFGGGTKVEIK
 |  |  |  | binds | binds | Antibody No. V011 (ADI-70328) Fab (Fab, V domains shown) VH: QVQLVQSGAEVKKPGASVKVSCKASGFNIDDYYMHWVRQAPGQRLEWIGWIDLENDNTVYDAKFQGRVTITRDTSASTAYMELSSLRSEDTAVYYCARDAYGRYFYDVWGQGTLVTVSS VL: DIVMSQSPDSLAVSLGERATINCKSSQSLLNARTGKNYLAWYQQKPGQPPKLLIYWASTRSSGVPDRFSGSGSGTDFTLTISSLQAEDVAVYYCVQSYFRRTFGGGTKVEIK
 |  |  |  | binds | binds | Antibody No. V012 (ADI-70329) Fab (Fab, V domains shown) VH: QVQLVQSGAEVKKPGASVKVSCKASGFNDKDYYMHWVRQAPGQRLEWIGWIDLENAETVYDAKFQDRVTITRDTSASTAYMELSSLRSEDTAVYYCARDAYGRYFYDVWGQGTLVTVSS VL: DIVMSQSPDSLAVSLGERATINCKSSQSLLNARTGKNYLAWYQQKPGQPPKLLIYWASTRSSGVPDRFSGSGSGTDFTLTISSLQAEDVAVYYCVQSYFRRTFGGGTKVEIK
binds | binds |  |  |  |  | Antibody No. V008 (ADI-70325) IgG1 (antibody, V domains shown) VH: QVQLVQSGAEVKKPGASVKVSCKASGFNIKDYYMHWVRQAPGQRLEWIGWIDLENAETVYDAKFQDRVTITRDTSASTAYMELSSLRSEDTAVYYCARDAYGRYFYDVWGQGTLVTVSS VL: DIVMSQSPDSLAVSLGERATINCKSSQSLLNARTGKNYLAWYQQKPGQPPKLLIYWASTRSSGVPDRFSGSGSGTDFTLTISSLQAEDVAVYYCVQSYFRRTFGGGTKVEIK
 |  |  |  | binds | binds | Antibody No. V010 (ADI-70327) Fab (Fab, V domains shown) VH: QVQLVQSGAEVKKPGASVKVSCKASGFDIKDYYMHWVRQAPGQRLEWIGWIELENDDTVYDAKFQGRVTITRDTSASTAYMELSSLRSEDTAVYYCARDAYGRYFYDVWGQGTLVTVSS VL: DIVMSQSPDSLAVSLGERATINCKSSQSLLNARTGKNYLAWYQQKPGQPPKLLIYWASTRSSGVPDRFSGSGSGTDFTLTISSLQAEDVAVYYCVQSYFRRTFGGGTKVEIK
 |  |  |  | binds | binds | Antibody No. V008 (ADI-70325) Fab (Fab, V domains shown) VH: QVQLVQSGAEVKKPGASVKVSCKASGFNIKDYYMHWVRQAPGQRLEWIGWIDLENAETVYDAKFQDRVTITRDTSASTAYMELSSLRSEDTAVYYCARDAYGRYFYDVWGQGTLVTVSS VL: DIVMSQSPDSLAVSLGERATINCKSSQSLLNARTGKNYLAWYQQKPGQPPKLLIYWASTRSSGVPDRFSGSGSGTDFTLTISSLQAEDVAVYYCVQSYFRRTFGGGTKVEIK
binds | binds | binds | binds |  |  | Antibody No. V010 (ADI-70327) IgG1 (antibody, V domains shown) VH: QVQLVQSGAEVKKPGASVKVSCKASGFDIKDYYMHWVRQAPGQRLEWIGWIELENDDTVYDAKFQGRVTITRDTSASTAYMELSSLRSEDTAVYYCARDAYGRYFYDVWGQGTLVTVSS VL: DIVMSQSPDSLAVSLGERATINCKSSQSLLNARTGKNYLAWYQQKPGQPPKLLIYWASTRSSGVPDRFSGSGSGTDFTLTISSLQAEDVAVYYCVQSYFRRTFGGGTKVEIK
 |  | binds | binds |  |  | Antibody No. V019 (ADI-76362) IgG1 (antibody, V domains shown) VH: QVQLVQSGAEVKKPGASVKVSCKASGFNIKDYYMHWVRQAPGQRLEWMGWIDLEEGDTIYDAKFQGRVTITRDTSASTAYMELSSLRSEDTAVYYCARDAYGRYFYDVWGQGTLVTVSS VL: DIVMTQSPDSLAVSLGERATINCKSSQSLLNARTGKNYLAWYQQKPGQPPKLLIYWASTRESGVPDRFSGSGSGTDFTLTISSLQAEDVAVYYCKQSYSLRTFGGGTKVEIK
 |  | binds | binds |  |  | Antibody No. V018 (ADI-76361) IgG1 (antibody, V domains shown) VH: QVQLVQSGAEVKKPGASVKVSCKASGFDIKDYYMHWVRQAPGQRLEWMGWIDLEEGNTIYDAKFQGRVTITRDTSASTAYMELSSLRSEDTAVYYCARDAYGRYFYDVWGQGTLVTVSS VL: DIVMTQSPDSLAVSLGERATINCKSSQSLLNARTGKNYLAWYQQKPGQPPKLLIYWASTRESGVPDRFSGSGSGTDFTLTISSLQAEDVAVYYCKQSYSLRTFGGGTKVEIK
binds | binds | binds | binds |  |  | Antibody No. V009 (ADI-70326) IgG1 (antibody, V domains shown) VH: QVQLVQSGAEVKKPGASVKVSCKASGFDIKDYYMHWVRQAPGQRLEWIGWIELENADTVYDAKFQGRVTITRDTSASTAYMELSSLRSEDTAVYYCARDAYGRYFYDVWGQGTLVTVSS VL: DIVMSQSPDSLAVSLGERATINCKSSQSLLNARTGKNYLAWYQQKPGQPPKLLIYWASTRSSGVPDRFSGSGSGTDFTLTISSLQAEDVAVYYCVQSYFRRTFGGGTKVEIK
 |  | binds | binds |  |  | Antibody No. V017 (ADI-76360) IgG1 (antibody, V domains shown) VH: QVQLVQSGAEVKKPGASVKVSCKASGFNIKDYYMHWVRQAPGQRLEWMGWIDLENADTIYDAKFQGRVTITRDTSASTAYMELSSLRSEDTAVYYCGRDAYGRYFYDVWGQGTLVTVSS VL: DIVMTQSPDSLAVSLGERATINCKSSQSLLNARTGKNYLAWYQQKPGQPPKLLIYWASTRESGVPDRFSGSGSGTDFTLTISSLQAEDVAVYYCKQSYSLRTFGGGTKVEIK
binds | binds |  |  |  |  | Antibody No. V011 (ADI-70328) IgG1 (antibody, V domains shown) VH: QVQLVQSGAEVKKPGASVKVSCKASGFNIDDYYMHWVRQAPGQRLEWIGWIDLENDNTVYDAKFQGRVTITRDTSASTAYMELSSLRSEDTAVYYCARDAYGRYFYDVWGQGTLVTVSS VL: DIVMSQSPDSLAVSLGERATINCKSSQSLLNARTGKNYLAWYQQKPGQPPKLLIYWASTRSSGVPDRFSGSGSGTDFTLTISSLQAEDVAVYYCVQSYFRRTFGGGTKVEIK
binds | binds | binds | binds |  |  | Antibody No. V013 (ADI-70330) IgG1 (antibody, V domains shown) VH: QVQLVQSGAEVKKPGASVKVSCKASGFNIDDYYMHWVRQAPGQRLEWIGWIDLENANTVDDAKFQGRVTITRDTSASTAYMELSSLRSEDTAVYYCARDAYGRYFYDVWGQGTLVTVSS VL: DIVMSQSPDSLAVSLGERATINCKSSQSLLNARTGKNYLAWYQQKPGQPPKLLIYWASTRSSGVPDRFSGSGSGTDFTLTISSLQAEDVAVYYCVQSYFRRTFGGGTKVEIK
binds | binds |  |  |  |  | Antibody No. V012 (ADI-70329) IgG1 (antibody, V domains shown) VH: QVQLVQSGAEVKKPGASVKVSCKASGFNDKDYYMHWVRQAPGQRLEWIGWIDLENAETVYDAKFQDRVTITRDTSASTAYMELSSLRSEDTAVYYCARDAYGRYFYDVWGQGTLVTVSS VL: DIVMSQSPDSLAVSLGERATINCKSSQSLLNARTGKNYLAWYQQKPGQPPKLLIYWASTRSSGVPDRFSGSGSGTDFTLTISSLQAEDVAVYYCVQSYFRRTFGGGTKVEIK
 |  | binds | binds |  |  | Antibody No. A005 (ADI-26921) IgG1 (antibody, V domains shown) VH: QVQLVQSGAEVKKPGASVKVSCKASGFNIKDYYMHWVRQAPGQRLEWMGWIDLEEGNTIYDAKFQGRVTITRDTSASTAYMELSSLRSEDTAVYYCARDAYGRYFYDVWGQGTLVTVSS VL: DIVMTQSPDSLAVSLGERATINCKSSQSLLNARTGKNYLAWYQQKPGQPPKLLIYWASTRESGVPDRFSGSGSGTDFTLTISSLQAEDVAVYYCKQSYSLRTFGGGTKVEIK
 |  |  |  | binds | binds | Antibody No. V009 (ADI-70326) Fab (Fab, V domains shown) VH: QVQLVQSGAEVKKPGASVKVSCKASGFDIKDYYMHWVRQAPGQRLEWIGWIELENADTVYDAKFQGRVTITRDTSASTAYMELSSLRSEDTAVYYCARDAYGRYFYDVWGQGTLVTVSS VL: DIVMSQSPDSLAVSLGERATINCKSSQSLLNARTGKNYLAWYQQKPGQPPKLLIYWASTRSSGVPDRFSGSGSGTDFTLTISSLQAEDVAVYYCVQSYFRRTFGGGTKVEIK
 |  | binds | binds |  |  | Antibody No. A004 (ADI-26920) IgG1 (antibody, V domains shown) VH: QVQLVQSGAEVKKPGASVKVSCKASGFNIKDYYMHWVRQAPGQRLEWMGWIDLENANTIYDAKFQGRVTITRDTSASTAYMELSSLRSEDTAVYYCGRDAYGRYFYDVWGQGTLVTVSS VL: DIVMTQSPDSLAVSLGERATINCKSSQSLLNARTGKNYLAWYQQKPGQPPKLLIYWASTRESGVPDRFSGSGSGTDFTLTISSLQAEDVAVYYCKQSYSLRTFGGGTKVEIK
 |  |  |  | binds | binds | Antibody No. A002 (ADI-50024) Fab (Fab, V domains shown) VH: QVQLVQSGAEVKKPGASVKVSCKASGFNIKDYYMHWVRQAPGQRLEWIGWIDLENANTVYDAKFQGRVTITRDTSASTAYMELSSLRSEDTAVYYCARDAYGRYFYDVWGQGTLVTVSS VL: DIVMSQSPDSLAVSLGERATINCKSSQSLLNARTGKNYLAWYQQKPGQPPKLLIYWASTRSSGVPDRFSGSGSGTDFTLTISSLQAEDVAVYYCVQSYFRRTFGGGTKVEIK
